Our source for the binding values is publication PMC6857050.

Protein sequences, listed by entry. Tags and fused reporters are not part of them.
UniProt P60953: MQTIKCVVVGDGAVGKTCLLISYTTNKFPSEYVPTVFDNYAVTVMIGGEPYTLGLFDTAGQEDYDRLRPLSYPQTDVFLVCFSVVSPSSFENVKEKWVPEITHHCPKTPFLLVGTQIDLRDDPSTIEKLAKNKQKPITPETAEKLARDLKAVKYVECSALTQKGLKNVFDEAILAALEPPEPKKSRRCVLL

One experiment has as its target His-GINS4 fusion protein (UniProt Q9BRT9). The experiment in a line: pull-down; His-GINS4 rotated with GST, GST-Rac1 or GST-CDC42 at 4 °C for 4 h, then Ni-NTA beads for 4 h at 4 °C; three washes; western blot with anti-GST antibody; both purified. A general note: A western blot detects proteins with antibodies after separation by electrophoresis.
Experiment [1] has as its target Flag-GINS4 (in 293T cells) (UniProt Q9BRT9). Put plainly: co-IP; 293T cells transfected with Flag-GINS4 or Flag-vector for 24 h; lysis buffer 20 mM Tris-HCl pH 8, 137 mM NaCl, 0.5% Triton X-100, 2 mM EDTA; 500 μg protein on anti-FLAG-M2 agarose; western blot.
Experiment [2] has as its target Flag-GINS4 (in MGC-803 cells) (UniProt Q9BRT9). Put plainly: co-IP; MGC-803 cells; Flag-GINS4 immunoprecipitated, endogenous Rac1 and CDC42 detected (Figure S3A).

No constants are given. Whether binding was seen depends on the method and setting. For part of these data: In cells and extracts the contact can be indirect. Some binding calls cover weakened binding; strength is not graded here.

Regarding GST-CDC42 (from UniProt P60953 1-191), the binding result with His-GINS4 fusion protein was “binds”.

As to “endogenous CDC42 (293T cells) (from UniProt P60953 1-191)”, the binding entry in experiment [1] is on record as “binds”.

Consider “endogenous CDC42 (MGC-803 cells) (from UniProt P60953 1-191)”, for which, in experiment [2], the binding result is reported as “binds”.
